Data reported in article PMC10163288.
Some of the results follow.

B1: il2ra_site2_2erj_normal_mot_HHH_b2_00494_000000216_0001_41_54_H_._HHH_b1_07293_af2_0001_0000800113_0000001_0 (protein)
chain: SSSSNEDLKRAYELAVRILELIHRGDEEEAKELLEELERLAEKFNSENLREIIRFLEQQLSSSSS
B2: il2ra_site1_3nfp_sap_17_mot_HHH_b2_05178_af2_000000174_0001_1_19_H_._HHH_b2_00929_af2_0001_0000100002_0000001_1_0001_af2pred_0001_af2pred_1 (protein)
chain: SSSSSDEHRQALRISREIRELLKEGDPEEVEELLKELEELAKKVNDEAAKILVERLKKKLESSSS
B3: il2ra_site2_2erj_sap_27_mot_HHH_b1_08185_000000063_0001_41_55_H_._HHH_b1_03158_0001_0000300009_0000001_0_0001_af2pred_0001_af2pred (protein)
chain: SSSDALERAREVLKEVLELLRKGNDEEAKKLLEEAREILEELGDKTALRLIEQALRLLEKLSSSS
B4: il2ra_site1_2b5i_sap_13_mot_HHH_b2_08121_af2_000000082_0001_40_52_H_._HHH_b2_04656_0002_0000400019_0000001_0_0001_af2pred_dldesign_0_af2pred (protein)
chain: SSSSSDVYAEVERLFKEAQKLWREGKKEEAKKVLEEALKLAKAANDTKIVAELERFLKLLSSSSS
B5: il2ra_site1_3nfp_normal_mot_HHH_b1_02869_af2_000000018_0001_41_55_H_._HEEHE_2123_0001_0000100006_0000001_0 (protein)
chain: EEELDVRHLARALARAARVPKVEIEIENNRVTVTVEGDDEAARRALEAAEQFWRLLGYEVELEIE
B6: il2ra_site1_3nfp_sap_22_mot_1d0af4279e6cd48282cc3e51f763a6be_0001_000000077_0001_33_47_H_._HHH_b2_02973_0001_0000500016_0000001_0_0001 (protein)
chain: SSSSSNSAERLERLLREAWRAAKEGDPEEAKKILEEALELAEEAGNKSAARSIRIALEMLSSSSS
B7: il2ra_site1_1z92_normal_mot_HHH_b2_07822_af2_000000141_0001_42_54_H_._HHH_b1_04440_0001_0000300014_0000001_0 (protein)
chain: SSSSSTDELIEERFEFAAENFKLSDDEHALRWALELLKALAKLLNDPELERRVKELEEEISSSSS
B8: il2ra_site2_3nfp_normal_mot_HHH_b2_07840_000000026_0001_18_34_H_._HHH_b2_03668_0001_0000300078_0000001_0 (protein)
chain: SSSSDEERLEELLEKVHELIKEGDEEEAKKLLEEATQIAYERRDHEAFAIITDLLALLAQASSSS
B9: il2ra_site1_1z92_normal_mot_HHH_b2_06170_af2_000000251_0001_1_19_H_._HEEHE_2247_0001_0000200017_0000001_0 (protein)
chain: DLRRELIELAKELSKELGVDAVLVVVQNGTVQVLVHADNEEAEKLLRTLEEYAEELGLEVRLRIR
B10: il2ra_site1_1z92_normal_mot_HHH_b2_05172_af2_000000284_0001_1_18_H_._HHH_b1_06259_0001_0000100001_0000001_0_af2pred_0001_af2pred (protein)
chain: SSSSDEEERLALEIVIRLAREFKLDLEQIKILTEVALELLERGLSEEEIEEILEEVAERLSSSSS
B11: il2ra_site2_3nfp_normal_mot_HHH_b1_01086_000000225_0001_20_36_H_._HHH_b1_00346_af2_0001_0000400008_0000001_0 (protein)
chain: SSSSDEEENEELLEELRRLIEEGDEERARKLAEEASNLLYENNDFEAFAKLADLVFLIKQLSSSS
B12: il2ra_site2_2erj_sap_25_mot_HHH_b1_02841_000000060_0001_43_57_H_._HHH_b1_02445_af2_0001_0000300014_0000001_0_0001 (protein)
chain: SSSSDTEERVEEVLEEARKAYEEGDLHEVYRLAVEAMRIASENNDQEALELVLRFIEELSSSSSS
B13: il2ra_site2_2erj_normal_mot_HHH_b1_04103_000000259_0001_21_37_H_._HHH_b2_01479_af2_0001_0000100001_0000001_0_1_af2pred_0001_1_af2pred_swapped (protein)
chain: SSSSDDRVIEAAALAIELAFRLLERGDEETAKELMELFQELARHGDPELAEELREFIEEFSSSSS
B14: il2ra_site2_2erj_sap_23_mot_HHH_b2_01204_af2_000000051_0001_19_34_H_._HHH_b2_01135_0001_0000300045_0000001_0_0001 (protein)
chain: SEEVLIKRFIEVQARDAGVPHVEVEIENGTFSVTVEGDDEAAKQVLEAARMVAEVLGVPIEVEIE
B15: il2ra_site1_3nfp_sap_10_mot_HHH_b1_01159_af2_000000107_0001_1_20_H_._HHH_b1_00500_0001_0000300009_0000001_0_0001_af2pred_0001_af2pred_1_swapped (protein)
chain: SSSSDFERLRELIEEAQKLLKEGNPEEAREVLEEAREIAEKLGDKIAREWVERLLELAERRSSSS
B16: il2ra_site1_3nfp_normal_mot_HHH_b1_07644_af2_000000110_0001_40_57_H_._HHH_b1_04414_0001_0000200010_0000001_0 (protein)
chain: SSSSDQELAKLADEIWELIREGDIEEARRVLEEAERLAEELGDEIAKRLLRQLQEALERRSSSSS
B17: il2ra_site2_2erj_normal_mot_c2bf78bdce995293a161f7082e24b401_0001_af2_000000082_0001_17_32_H_._HHH_b2_05903_af2_0001_0000100003_0000001_0 (protein)
chain: SSSSNEELKELYELANELMHAIARGDEELVEEIFEKIEELAKKLDSENARELAESLLRLQNSSSS
B18: il2ra_site1_1z92_sap_22_mot_HHH_b1_05516_af2_000000202_0001_21_38_H_._HHH_b2_07203_0001_0000400022_0000001_0_0001 (protein)
chain: DDEAARYDLERSLKLGIPPRDVVMAVLRALERFLGDPEEALEVIERAIKLLNDPELEEVVEKLKP
B19: il2ra_site1_3nfp_normal_mot_7cda4bd6c75d31e303a515fbb7282898_0001_1_000000177_0001_18_32_H_._9b841c8fe2e6d1e24304b827c5c38554_0001_1_af2_0001_0000300040_0000001 … (protein)
chain: TDEEREEKLLERIKKEGDPELARELLELLEELLGDPVEAFHALSHLLARAGLSVEEVARLLKLAA
B20: il2ra_site2_2erj_sap_20_mot_c2bf78bdce995293a161f7082e24b401_0001_af2_000000000_0001_17_32_H_._HHH_b2_04009_af2_0001_0000600010_0000001_0_0001 (protein)
chain: SSSDEEEEKAKEALKEAEELLERGDPEEAEKVLREAATLVWRLNDFEAWARLAELLRRIAKSSSS
B21: il2ra_site2_3nfp_sap_25_mot_HHH_b2_06150_000000217_0001_39_53_H_._HHH_b2_05014_af2_0001_0000300011_0000001_0_0001 (protein)
chain: DEVSEVIWRLREEGDPELAFLLFAVRADVLYKHDPELEEELEKLIELAERDPEKAKELAEELLRR
B22: il2ra_site1_2b5i_sap_12_mot_HHH_b1_05282_000000062_0001_1_18_H_._HHH_b2_01219_0001_0000300021_0000001_0_0001 (protein)
chain: SSSSDEEVREQVERLIEEAEKALEKGNRLEAMRILDEAARLADENDDEELSKRLQELAREISSSS
B23: il2ra_site1_2b5i_sap_12_mot_HHH_b2_01822_000000237_0001_40_54_H_._HHH_b2_05962_0001_0000300010_0000001_1_0001_af2pred_dldesign_0_af2pred (protein)
chain: SSSSSSPAELAREALELFLEAEKIEDEEERKAKLEKALELAKKGKNNSLVKMLEYALSELSSSSS
B24: il2ra_site2_2erj_normal_mot_HHH_b1_03107_000000098_0001_39_52_H_._HHH_b2_06061_0001_0000100001_0000001_0 (protein)
chain: SSSSSDEKEVWEEVAELLARAAHIKDDEEVRELLEEAERLARELNSPFLERYVEYVRRDHSSSSS
B25: il2ra_site1_2b5i_sap_10_mot_HHH_b1_06743_af2_000000095_0001_1_19_H_._HHH_b2_02247_0001_0000400006_0000001_0_0001 (protein)
chain: SSSSSDEEELDEAFREVSRLWREGNPEEARKLLEEAIELAEELGDEAAQRDLRRFLEMLNSSSSS
B26: il2ra_site1_1z92_sap_21_mot_HHH_b2_07822_af2_000000141_0001_42_54_H_._HHH_b1_05714_af2_0001_0000200004_0000001_0_0001 (protein)
chain: DLEEKIRKVAEELGIPPEDLEAFEYDLEAAERLFGDPEHALKALLMAAEKAGDENIFELAELVLK
B27: il2ra_site1_3nfp_normal_mot_HHH_b1_01335_af2_000000258_0001_39_53_H_._HHH_b2_05319_0001_0000200014_0000001_1_af2pred_0001_af2pred_swapped (protein)
chain: SSSSSSEVEERVEELLEEARHVDLREAEELLREAQRLAREYNNEELLELVFKVMRELAKSSSSSS
B28: il2ra_site1_3nfp_sap_12_mot_HHH_b2_05809_000000010_0001_1_20_H_._HHH_b1_02217_0001_0000300010_0000001_0_0001 (protein)
chain: SSSSSERAEEFWRLIRELIEAQKEGDEEKAEELAELLKELAKERNDEFDEKAVERLLKLLRSSSS
B29: il2ra_site1_1z92_normal_mot_4eadacea29f80ea3a0abedbb5e3c3690_0001_af2_000000154_0001_35_49_H_._HEEHE_0610_af2_0001_0000100007_0000001_0_af2pred_0001_af2pred (protein)
chain: SEEEVIEEDIERVARLAGVPSVEVEVSNNTIEVTVRGDDDRARTLAKIVEKLAKAADLEVHVEIE
B30: il2ra_site2_3nfp_sap_14_mot_HHH_b1_03213_af2_000000225_0001_42_59_H_._HHH_b2_04641_0001_0000200010_0000001_0_0001 (protein)
chain: SSSSKAEEYVRIALELAEEAIEDGDPESARRMLHIALLAAEDNGDEELAEEIERLLEELGSSSSS
B31: il2ra_site2_2erj_sap_27_mot_HHH_b1_00941_000000051_0001_45_58_H_._HHH_b2_05721_0001_0000800023_0000001_0_0001 (protein)
chain: SSSSSEEVEELLEEAEKAAKEGNLAEALRIIHEALRVAEELNDPELLREVNEVAQKLMELSSSSS
B32: il2ra_site1_3nfp_normal_mot_HHH_b1_06396_000000212_0001_1_19_H_._HEEHE_3173_0001_0000500020_0000001_0 (protein)
chain: SADEYLEEALEKDAERLGVPSIEVTIRNGTLHVTIKGNDEAAEEAEQLIEFFARAAKFPVEIRVE
B33: il2ra_site1_3nfp_normal_mot_HHH_b2_03135_af2_000000097_0001_42_55_H_._HEEHE_2706_0001_0000100001_0000001_0 (protein)
chain: NEEEIVERLIKQQAESAGVPHVEVEIHNGTFEVTVEGDDEAARRVLELAEEAAEQLGIPIHVETR
B34: il2ra_site2_3nfp_sap_24_mot_0136b98644bc9a8eb58b95019b738ebb_0001_1_000000071_0001_1_13_H_._HHH_b1_00442_af2_0001_0000600028_0000001_0_0001_af2pred_0001_af2pred … (protein)
chain: SSSSDHEKFALRALLLEIKIAIESGDEERVKKAIELLRKVIEKLNDEEMEEELERLERELSSSSS
B35: il2ra_site2_3nfp_sap_21_mot_HHH_b2_08209_000000146_0001_1_18_H_._5511cb2176c827d1feb3066af2f534d5_0001_af2_0001_0000100005_0000001_1_0001 (protein)
chain: SSSSDLEEEVERLLEEAEHIEDPEELERLLFEAASLAAEANDRELYAAAMEIMWELIEKNSSSSS
B36: il2ra_site1_3nfp_sap_16_mot_HHH_b1_07204_af2_000000238_0001_41_55_H_._HHH_b1_06952_af2_0001_0000800009_0000001_0_0001_af2pred_0001_af2pred_1_swapped (protein)
chain: TAAEKLIRLAVEQGSKRVIKKIVEDAEKNLGDPEKAERLVIELLERALNIPPEEAKELVEELLER
B37: il2ra_site2_2erj_normal_mot_HHH_b1_00261_000000083_0001_43_58_H_._HHH_b2_00580_af2_0001_0000200008_0000001_0 (protein)
chain: SSSSDEEAEEVSRILVEVLELFENGNEEEARELLEELLEKLKENNNEIAARYVEYALRIFSSSSS

Each binder was assayed against il2ra, P01589 (assay: yeast display titration).

Apparent Kd, inactive:
B1 no binding seen
B2 no binding seen
B3 no binding seen
B4 no binding seen
B5 no binding seen
B6 no binding seen
B7 no binding seen
B8 no binding seen
B9 no binding seen
B10 no binding seen
B11 no binding seen
B12 no binding seen
B13 no binding seen
B14 no binding seen
B15 no binding seen
B16 no binding seen
B17 no binding seen
B18 no binding seen
B19 > 1.44 µM
B20 no binding seen
B21 no binding seen
B22 no binding seen
B23 no binding seen
B24 no binding seen
B25 no binding seen
B26 no binding seen
B27 no binding seen
B28 no binding seen
B29 no binding seen
B30 no binding seen
B31 no binding seen
B32 no binding seen
B33 no binding seen
B34 no binding seen
B35 no binding seen
B36 no binding seen
B37 no binding seen

Two consecutive entries out of the list so far:
Apparent Kd, inactive:
B20 no binding seen
B21 no binding seen
